No constants are given. Whether binding was seen depends on the method and setting. Binding seen in cells or lysates may run through a third protein. Some entries that bind do so weakly or less than the wild type. Each block holds one molecule with its values, some of them ahead of it.
How the values were obtained:
[1] = molecular target: endogenous HIF2A (hypoxia-stabilized) of human cells (human (endogenous in HEK293 and HCMs)) (UniProt Q99814); test: co-IP; reciprocal: HEK293 cells overexpressing BMAL1-Flag, normoxia or hypoxia (1% O2, 4 h); cytosolic and nuclear extracts immunoprecipitated with anti-HIF2A, Western blot
[2] = molecular target: endogenous HIF2A (hypoxia-stabilized) of human cells (human (endogenous in HEK293 and HCMs)) (UniProt Q99814); test: co-IP; primary human cardiomyocytes, 1% O2 for 0, 0.5, 1, 2, 4 or 8 h; lysate in HEPES EB buffer (20 mM HEPES pH 7.4, 100 mM NaCl, 1 mM EDTA, 0.1% Triton X-100, 5% glycerol) immunoprecipitated with anti-HIF2A
[3] = molecular target: endogenous HIF2A (hypoxia-stabilized) of human cells (human (endogenous in HEK293 and HCMs)) (UniProt Q99814); test: co-IP; primary human cardiomyocytes synchronized with dexamethasone (200 nM, 1 h), hypoxia (1% O2, 4 h) at CT20 or CT32; nuclear extracts immunoprecipitated with anti-HIF2A
[4] = molecular target: endogenous HIF2A (hypoxia-stabilized) of human cells (human (endogenous in HEK293 and HCMs)) (UniProt Q99814); test: proximity ligation; in situ PLA (Duolink) on fixed primary human cardiomyocytes after 1% O2 for 0, 1, 4 or 8 h; signals per nucleus
[5] = molecular target: endogenous BMAL1 of primary human cardiomyocytes (human (endogenous in HCMs)) (UniProt O00327); test: as above
[6] = molecular target: BMAL1-Flag (pcDNA3 mBmal1) overexpressed in HEK293 cells (mouse) (UniProt Q9WTL8); test: co-IP; HEK293 cells overexpressing BMAL1-Flag, normoxia or hypoxia (1% O2, 4 h); cytosolic and nuclear extracts immunoprecipitated with anti-Flag, Western blot
[7] = molecular target: BMAL1-Flag (pcDNA3 mBmal1) overexpressed in HEK293 cells (mouse) (UniProt Q9WTL8); test: co-IP; HEK293 cells overexpressing WT or mutated Flag-tagged BMAL1, hypoxia (1% O2, 4 h); immunoprecipitated with anti-Flag, blotted with anti-HIF2A and anti-Flag

Chains of the proteins cited; added tags and fusions are not shown.
UniProt Q99814: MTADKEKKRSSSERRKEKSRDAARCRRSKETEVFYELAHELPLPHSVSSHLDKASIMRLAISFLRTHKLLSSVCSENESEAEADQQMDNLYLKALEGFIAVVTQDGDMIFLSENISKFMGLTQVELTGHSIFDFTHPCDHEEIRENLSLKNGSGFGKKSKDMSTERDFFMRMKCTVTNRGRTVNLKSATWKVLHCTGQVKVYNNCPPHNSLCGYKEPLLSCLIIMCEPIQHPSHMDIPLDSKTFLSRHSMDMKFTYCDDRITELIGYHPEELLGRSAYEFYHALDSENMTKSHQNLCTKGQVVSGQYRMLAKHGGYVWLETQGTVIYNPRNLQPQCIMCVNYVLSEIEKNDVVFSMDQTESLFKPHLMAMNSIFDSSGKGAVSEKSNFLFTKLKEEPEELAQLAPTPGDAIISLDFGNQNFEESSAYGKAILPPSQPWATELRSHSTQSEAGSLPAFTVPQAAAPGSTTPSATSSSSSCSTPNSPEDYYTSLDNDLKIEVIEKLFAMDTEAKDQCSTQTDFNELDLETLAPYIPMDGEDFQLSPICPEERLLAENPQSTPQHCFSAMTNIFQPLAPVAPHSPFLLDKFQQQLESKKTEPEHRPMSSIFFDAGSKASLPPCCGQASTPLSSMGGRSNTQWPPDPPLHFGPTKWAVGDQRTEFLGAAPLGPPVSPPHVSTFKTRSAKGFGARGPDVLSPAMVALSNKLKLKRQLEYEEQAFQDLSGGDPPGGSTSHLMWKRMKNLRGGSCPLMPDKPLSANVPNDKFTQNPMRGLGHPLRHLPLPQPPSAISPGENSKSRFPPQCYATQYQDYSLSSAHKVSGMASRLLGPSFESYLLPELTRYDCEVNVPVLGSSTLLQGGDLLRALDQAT
UniProt O00327: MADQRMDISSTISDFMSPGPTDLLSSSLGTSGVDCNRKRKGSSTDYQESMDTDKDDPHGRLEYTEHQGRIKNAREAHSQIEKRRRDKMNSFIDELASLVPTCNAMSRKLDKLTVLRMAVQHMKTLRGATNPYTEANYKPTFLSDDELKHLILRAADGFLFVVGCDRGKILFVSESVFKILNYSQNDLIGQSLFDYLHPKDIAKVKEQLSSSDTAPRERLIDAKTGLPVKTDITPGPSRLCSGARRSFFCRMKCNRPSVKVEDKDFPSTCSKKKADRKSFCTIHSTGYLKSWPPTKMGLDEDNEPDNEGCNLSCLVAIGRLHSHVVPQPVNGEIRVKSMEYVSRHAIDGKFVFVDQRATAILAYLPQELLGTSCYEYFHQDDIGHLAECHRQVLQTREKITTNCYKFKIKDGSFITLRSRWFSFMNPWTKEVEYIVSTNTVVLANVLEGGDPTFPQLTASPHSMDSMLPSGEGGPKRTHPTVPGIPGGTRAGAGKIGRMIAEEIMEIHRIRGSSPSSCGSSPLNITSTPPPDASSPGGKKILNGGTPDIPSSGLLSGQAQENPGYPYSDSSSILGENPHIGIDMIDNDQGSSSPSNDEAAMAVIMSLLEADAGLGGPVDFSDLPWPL
UniProt Q9WTL8: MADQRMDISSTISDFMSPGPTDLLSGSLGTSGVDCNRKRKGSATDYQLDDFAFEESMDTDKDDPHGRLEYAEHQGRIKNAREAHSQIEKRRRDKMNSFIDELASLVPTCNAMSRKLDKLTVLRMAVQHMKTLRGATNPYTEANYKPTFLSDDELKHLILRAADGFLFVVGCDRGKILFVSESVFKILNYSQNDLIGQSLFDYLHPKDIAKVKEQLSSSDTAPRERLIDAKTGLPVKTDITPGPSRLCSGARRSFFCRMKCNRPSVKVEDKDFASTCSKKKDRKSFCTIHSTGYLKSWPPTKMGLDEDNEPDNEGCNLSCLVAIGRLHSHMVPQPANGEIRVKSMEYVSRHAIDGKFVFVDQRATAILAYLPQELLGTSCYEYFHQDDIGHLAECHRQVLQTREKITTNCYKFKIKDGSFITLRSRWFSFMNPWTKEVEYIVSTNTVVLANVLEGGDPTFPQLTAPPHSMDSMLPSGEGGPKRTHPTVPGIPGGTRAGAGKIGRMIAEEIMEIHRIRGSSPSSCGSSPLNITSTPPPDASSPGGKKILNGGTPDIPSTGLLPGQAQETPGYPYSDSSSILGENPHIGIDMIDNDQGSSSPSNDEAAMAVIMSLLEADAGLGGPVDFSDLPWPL
UniProt Q16665: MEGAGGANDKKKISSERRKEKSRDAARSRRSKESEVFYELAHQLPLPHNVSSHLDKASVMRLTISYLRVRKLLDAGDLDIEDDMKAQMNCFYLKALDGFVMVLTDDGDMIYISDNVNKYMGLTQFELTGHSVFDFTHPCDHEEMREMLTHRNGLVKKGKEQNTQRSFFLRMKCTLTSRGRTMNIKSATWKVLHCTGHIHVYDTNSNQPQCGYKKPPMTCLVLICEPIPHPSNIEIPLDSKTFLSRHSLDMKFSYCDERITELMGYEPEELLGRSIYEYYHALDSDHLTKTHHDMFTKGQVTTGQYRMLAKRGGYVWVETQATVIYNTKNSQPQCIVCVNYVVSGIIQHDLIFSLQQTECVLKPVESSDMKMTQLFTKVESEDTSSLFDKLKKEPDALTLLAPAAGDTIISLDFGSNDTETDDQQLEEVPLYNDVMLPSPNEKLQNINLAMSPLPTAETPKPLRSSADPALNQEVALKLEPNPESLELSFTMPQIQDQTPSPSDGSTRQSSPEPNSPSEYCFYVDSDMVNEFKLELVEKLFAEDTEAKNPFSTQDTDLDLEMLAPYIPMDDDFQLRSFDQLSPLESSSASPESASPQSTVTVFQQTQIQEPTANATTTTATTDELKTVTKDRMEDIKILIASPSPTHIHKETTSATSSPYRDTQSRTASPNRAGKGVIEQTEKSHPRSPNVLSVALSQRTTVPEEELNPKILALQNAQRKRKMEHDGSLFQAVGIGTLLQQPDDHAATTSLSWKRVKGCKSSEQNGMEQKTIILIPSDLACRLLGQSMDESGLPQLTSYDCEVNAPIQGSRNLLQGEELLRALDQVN

binding [1]: binds
Molecule: BMAL1-Flag (pcDNA3 mBmal1) overexpressed in HEK293 cells (from UniProt Q9WTL8 1-632)

binding [2]: binds
binding [3]: binds
binding [4]: binds
Molecule: endogenous BMAL1 of primary human cardiomyocytes (from UniProt O00327 1-626)

binding [5]: binds weakly
binding [6]: binds weakly
Molecule: endogenous HIF1A of human cells (from UniProt Q16665 1-826)

binding [7]: binds
binding [6]: binds
Molecule: endogenous HIF2A (hypoxia-stabilized) of human cells (from UniProt Q99814 1-870)

binding [6]: binds
B1: endogenous CLOCK of HEK293 cells (protein, UniProt O15516 1-846)
chain: MLFTVSCSKMSSIVDRDDSSIFDGLVEEDDKDKAKRVSRNKSEKKRRDQFNVLIKELGSMLPGNARKMDKSTVLQKSIDFLRKHKEITAQSDASEIRQDWKPTFLSNEEFTQLMLEALDGFFLAIMTDGSIIYVSESVTSLLEHLPSDLVDQSIFNFIPEGEHSEVYKILSTHLLESDSLTPEYLKSKNQLEFCCHMLRGTIDPKEPSTYEYVKFIGNFKSLNSVSSSAHNGFEGTIQRTHRPSYEDRVCFVATVRLATPQFIKEMCTVEEPNEEFTSRHSLEWKFLFLDHRAPPIIGYLPFEVLGTSGYDYYHVDDLENLAKCHEHLMQYGKGKSCYYRFLTKGQQWIWLQTHYYITYHQWNSRPEFIVCTHTVVSYAEVRAERRRELGIEESLPETAADKSQDSGSDNRINTVSLKEALERFDHSPTPSASSRSSRKSSHTAVSDPSSTPTKIPTDTSTPPRQHLPAHEKMVQRRSSFSSQSINSQSVGSSLTQPVMSQATNLPIPQGMSQFQFSAQLGAMQHLKDQLEQRTRMIEANIHRQQEELRKIQEQLQMVHGQGLQMFLQQSNPGLNFGSVQLSSGNSSNIQQLAPINMQGQVVPTNQIQSGMNTGHIGTTQHMIQQQTLQSTSTQSQQNVLSGHSQQTSLPSQTQSTLTAPLYNTMVISQPAAGSMVQIPSSMPQNSTQSAAVTTFTQDRQIRFSQGQQLVTKLVTAPVACGAVMVPSTMLMGQVVTAYPTFATQQQQSQTLSVTQQQQQQSSQEQQLTSVQQPSQAQLTQPPQQFLQTSRLLHGNPSTQLILSAAFPLQQSTFPQSHHQQHQSQQQQQLSRHRTDSLPDPSKVQPQ
